Paper PMC9066866

Target: Triosephosphate isomerase 1 (TPI1) (human (endogenous in MDA-MB-231 and T47D)) (UniProt P60174)
Assay: affinity purification with mass spectrometry; IP of TPI1 (IgG as control) from MDA-MB-231 lysate, silver staining, bands subjected to mass spectrometry

- binding: binds
Substance: Sequestosome-1 (SQSTM1)/P62 (from UniProt Q13501 1-440)

These are yes or no findings as the source states them, for the method shown. Binding seen in cells or lysates may run through a third protein. A yes stands for co-enrichment or nearness to the bait. Other partners may have been found.
